These are yes or no findings as the source states them, for the method shown. Some binding calls cover weakened binding; strength is not graded here.
How the values were obtained:
[1] = target: Dendra1-10 (large fragment of split Dendra2); experiment: in vitro fluorescence reconstitution
[2] = target: Dendra1-10 (large fragment of split Dendra2); experiment: co-expression in HEK293 cells, fluorescence complementation
[3] = target: Dendra1-10 (large fragment of split Dendra2); experiment: in vitro fluorescence reconstitution, read every 0.1 s for 30 s
[4] = target: Dendra1-10 (large fragment of split Dendra2); experiment: in vitro fluorescence complementation, purified XFP1-10 and synthesized XFP11 peptide

Measured: binding

MGGGPDAHFVDHRIEILGNDSDYNKVKLYEHAVARYSPLPSQVW [Dendra11 (small fragment of split Dendra2)]
binds: all assays above

From patent US20210404962A1
